PubChem BioAssay AID1159584 – Peter MacCallum Cancer Centre | 2016
The whole screen tested about 18,000 reagents; below is a random part of them. Not all columns of the deposit are shown. No sequences are given here. The record does not give: the amount of reagent, the time to read-out.

Purpose: 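Knock-downs that harm CDH1-null cells more than parental MCF10A cells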 (primary screen)
System: human MCF10A breast epithelial cells, parental and CDH1-null
Reagent: siRNA against human genes
Measurement: 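Cell viability by CellTiter-Glo ATP luminescence, each line scaled to the mean of mock wells across plates, then CDH1-null over parental ratio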
Scale: CDH1-null / parental viability ratio: higher = CDH1-null cells survive relatively better than parental

For UBE2N (ubiquitin conjugating enzyme E2 N) the deposit lists CDH1-null / parental viability ratio 1.45.
Silencing of FAM20B (FAM20B glycosaminoglycan xylosylkinase) gave: CDH1-null / parental viability ratio 1.13.
Against SOX10 (SRY-box transcription factor 10) the deposit lists CDH1-null / parental viability ratio 1.12.
CD274 (CD274 molecule) scored CDH1-null / parental viability ratio 1.14.
PDZK1 (PDZ domain containing 1) scored CDH1-null / parental viability ratio 1.08.
With knock-down of FHDC1 (FH2 domain containing 1) the results were CDH1-null / parental viability ratio 1.
Depletion of ACOT13 (acyl-CoA thioesterase 13) came out at: CDH1-null / parental viability ratio 1.05.
After knock-down of FBL (fibrillarin rRNA 2'-O-methyltransferase) the results were CDH1-null / parental viability ratio 1.21.
After knock-down of CHD5 (chromodomain helicase DNA binding protein 5) the results were CDH1-null / parental viability ratio 1.04.
With knock-down of JRK (Jrk helix-turn-helix protein) the results were CDH1-null / parental viability ratio 1.04.
Against KRT38 (keratin 38), the entry reads CDH1-null / parental viability ratio 1.33.
After knock-down of TSEN34 (tRNA splicing endonuclease subunit 34), the record shows CDH1-null / parental viability ratio 0.9.
For CCDC107 (coiled-coil domain containing 107), the values are CDH1-null / parental viability ratio 1.1.
For EPHA6 (EPH receptor A6), the values are CDH1-null / parental viability ratio 1.06.
Against VANGL2 (VANGL planar cell polarity protein 2), the entry reads CDH1-null / parental viability ratio 0.86.
Depletion of IRF2BP2 (interferon regulatory factor 2 binding protein 2) resulted in: CDH1-null / parental viability ratio 1.22.
Against COPS2 (COP9 signalosome subunit 2), the values are CDH1-null / parental viability ratio 0.94.
HDIP1 (HDAC and MIER1 interacting protein 1) gave CDH1-null / parental viability ratio 1.66.
ACTN3 (actinin alpha 3) scored CDH1-null / parental viability ratio 1.18.
Knock-down of ALKAL2 (ALK and LTK ligand 2) came out at: CDH1-null / parental viability ratio 0.94.
TRUB1 (TruB pseudouridine synthase family member 1) gave CDH1-null / parental viability ratio 1.03.
EFNA1 (ephrin A1) showed CDH1-null / parental viability ratio 0.96.
DOLPP1 (dolichyldiphosphatase 1) gave CDH1-null / parental viability ratio 1.1.
For GNG4 (G protein subunit gamma 4) the deposit lists CDH1-null / parental viability ratio 0.9.

4 entries from above, sorted by “CDH1-null / parental viability ratio”, ascending.
ALKAL2 (ALK and LTK ligand 2) → CDH1-null / parental viability ratio = 0.94
TRUB1 (TruB pseudouridine synthase family member 1) → CDH1-null / parental viability ratio = 1.03
ACTN3 (actinin alpha 3) → CDH1-null / parental viability ratio = 1.18
HDIP1 (HDAC and MIER1 interacting protein 1) → CDH1-null / parental viability ratio = 1.66
